According to the supplement of paper PMC4604168 (melanoma cell lines):
Some of the results follow. Many values rest on one well or one pass, so single values are uncertain.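 The apoptosis fraction was the count of cleaved-PARP antibody-stained nuclei relative to all DNA-stained nuclei, imaged in 1,536-well plates. Screening doses were set so most cells survived, and baseline and induced cleaved-PARP levels vary greatly across cell lines.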

Columns and labels:
Test in all cases: cleaved PARP positive nuclei fraction relative to DMSO control; melanoma cells; higher = more apoptosis
Settings in all cases: library dose: low library concentration; 72 h
WM115 = tested on: WM115
WM1716 = tested on: WM1716
WM1745 = tested on: WM1745
WM3526 = tested on: WM3526
WM3619 = tested on: WM3619
WM451Lu = tested on: WM451Lu

| Compound | cleaved PARP positive nuclei fraction (WM115) | cleaved PARP positive nuclei fraction (WM1716) | cleaved PARP positive nuclei fraction (WM1745) | cleaved PARP positive nuclei fraction (WM3526) | cleaved PARP positive nuclei fraction (WM3619) | cleaved PARP positive nuclei fraction (WM451Lu) |
| --- | --- | --- | --- | --- | --- | --- |
| NC1(c2ccc(-c3nc4ccn5c(=O)[nH]nc5c4cc3-c3ccccc3)cc2)CCC1 + CN(C)S(=O)(=O)c1ccc2c(c1)/C(=C/c1cc3c([nH]1)CCCC3)C(=O)N2 [SU6656] (first compound 0.4 µM, partner dose 0.4 µM) | 370% | 124% | 111% | 75.9% | 98.6% | 27.6% |
| CC1(C)CCC(c2ccc(Cl)cc2)=C(CN2CCN(c3ccc(C(=O)NS(=O)(=O)c4ccc(N[C@H](CCN5CCOCC5)CSc5ccccc5)c(S(=O)(=O)C(F)(F)F)c4)cc3)CC2)C1 + Cn1sc(=O)n(Cc2ccccc2)c1=O [TDZD-8] (first compound 0.4 µM, partner dose 0.4 µM) | 441% | 98.6% | 692% | 190% | 92.8% | 53.1% |
| NC(=O)c1ccc(N(C(N)=O)c2c(F)cccc2F)nc1-c1ccc(F)cc1F + COc1cc(Nc2ncc(F)c(Nc3ccc4c(n3)NC(=O)C(C)(C)O4)n2)cc(OC)c1OC [Tamatinib] (first compound 0.4 µM, partner dose 0.4 µM) | 88.9% | 108% | 123% | 106% | 94.9% | 63.2% |
| NC1(c2ccc(-c3nc4ccn5c(=O)[nH]nc5c4cc3-c3ccccc3)cc2)CCC1 + O=C(Nc1ccccc1)c1cc([N+](=O)[O-])ccc1Cl [GW9662] (first compound 0.4 µM, partner dose 2 µM) | 23.2% | 27.9% | 109% | 203% | 85.3% | 66.9% |
| CCCCCCCCc1ccc(CCC(N)(CO)CO)cc1 [fingolimod] + O=S(=O)(c1ccccc1)N(CC(F)(F)F)c1ccc(C(O)(C(F)(F)F)C(F)(F)F)cc1 [T0901317] (first compound 2 µM, partner dose 1.4 µM) | 115% | 142% | 144% | 182% | 136% | 40.2% |
| CS(=O)(=O)c1ccc(C(=O)Nc2ccc(Cl)c(-c3ccccn3)c2)c(Cl)c1 [vismodegib] + CC(C)(C)c1cnc(CSc2cnc(NC(=O)C3CCNCC3)s2)o1 [SNS-032] (first compound 1 µM, partner dose 0.01 µM) | 89.7% | 216% | 95.2% | 36.8% | 99.3% | 64.2% |
| C[C@@H](N)c1ccc(C(=O)Nc2ccnc3[nH]ccc23)cc1 + Clc1ccc(Nc2nnc(Cc3ccncc3)c3ccccc23)cc1 [vatalanib] (first compound 0.4 µM, partner dose 2 µM) | 123% | 180% | 117% | 55.6% | 148% | 296% |
| CN(c1ncccc1CNc1nc(Nc2ccc3c(c2)CC(=O)N3)ncc1C(F)(F)F)S(C)(=O)=O + CC(=O)c1c(C)c2cnc(Nc3ccc(N4CCNCC4)cn3)nc2n(C2CCCC2)c1=O [palbociclib] (first compound 0.08 µM, partner dose 0.04 µM) | 73.5% | 55% | 132% | 109% | 105% | 126% |
| Cn1cnc2c(F)c(Nc3ccc(Br)cc3Cl)c(C(=O)NOCCO)cc21 [selumetinib] + CO[C@@H]1[C@H](N(C)C(=O)c2ccccc2)C[C@H]2O[C@]1(C)n1c3ccccc3c3c4c(c5c6ccccc6n2c5c31)C(=O)NC4 [Midostaurin] (first compound 0.015 µM, partner dose 0.08 µM) | 213% | 103% | 135% | 122% | 96.7% | 426% |
| COc1ccc(C2=N[C@@H](c3ccc(Cl)cc3)[C@@H](c3ccc(Cl)cc3)N2C(=O)N2CCNC(=O)C2)c(OC(C)C)c1 [Nutlin-3] + CC(C)C[C@H](NC(=O)[C@H](Cc1ccccc1)NC(=O)c1cnccn1)B(O)O [Bortezomib] (first compound 0.1 µM, partner dose 0.001 µM) | 92% | 263% | 101% | 48.6% | 250% | 97% |
| Cn1cnc2c(F)c(Nc3ccc(Br)cc3Cl)c(C(=O)NOCCO)cc21 [selumetinib] + C[C@@H]1CCN(C(=O)CC#N)C[C@@H]1N(C)c1ncnc2[nH]ccc12 [CP690550] (first compound 0.015 µM, partner dose 1 µM) | 159% | 87.9% | 85% | 73.7% | 108% | 56% |
| NC(=O)c1ccc(N(C(N)=O)c2c(F)cccc2F)nc1-c1ccc(F)cc1F + Cn1nnc2c(C(N)=O)ncn2c1=O [temozolomide] (first compound 0.4 µM, partner dose 2 µM) | 144% | 192% | 91.4% | 24.7% | 147% | 44.1% |
| Cn1sc(=O)n(Cc2ccccc2)c1=O + Cn1cncc1[C@@](N)(c1ccc(Cl)cc1)c1ccc2c(c1)c(-c1cccc(Cl)c1)cc(=O)n2C [tipifarnib] (first compound 0.4 µM, partner dose 0.01 µM) | 101% | 114% | 102% | 75.9% | 129% | 101% |
| CCCCCCCCc1ccc(CCC(N)(CO)CO)cc1 [fingolimod] + COc1cc2c(Oc3ccc4[nH]c(C)cc4c3F)ncnc2cc1OCCCN1CCCC1 [cediranib] (first compound 2 µM, partner dose 0.4 µM) | 96.7% | 101% | 112% | 120% | 80.7% | 49.4% |
| C[C@@H](N)c1ccc(C(=O)Nc2ccnc3[nH]ccc23)cc1 + CO[C@@H]1[C@H](N(C)C(=O)c2ccccc2)C[C@H]2O[C@]1(C)n1c3ccccc3c3c4c(c5c6ccccc6n2c5c31)C(=O)NC4 [Midostaurin] (first compound 0.4 µM, partner dose 0.08 µM) | 86.7% | 247% | 112% | 113% | 127% | 110% |
| COc1ccc(C2=N[C@@H](c3ccc(Cl)cc3)[C@@H](c3ccc(Cl)cc3)N2C(=O)N2CCNC(=O)C2)c(OC(C)C)c1 [Nutlin-3] + NC1(c2ccc(-c3nc4ccn5c(=O)[nH]nc5c4cc3-c3ccccc3)cc2)CCC1 [MK2206] (first compound 0.1 µM, partner dose 0.4 µM) | 208% | 204% | 417% | 21.1% | 102% | 105% |
| NC(=O)c1ccc(N(C(N)=O)c2c(F)cccc2F)nc1-c1ccc(F)cc1F + CO[C@@H]1[C@H](N(C)C(=O)c2ccccc2)C[C@H]2O[C@]1(C)n1c3ccccc3c3c4c(c5c6ccccc6n2c5c31)C(=O)NC4 [Midostaurin] (first compound 0.4 µM, partner dose 0.08 µM) | 95.1% | 80.5% | 100% | 40.1% | 87.9% | 99.6% |
| NC1(c2ccc(-c3nc4ccn5c(=O)[nH]nc5c4cc3-c3ccccc3)cc2)CCC1 + CN(NC(=O)CC(=O)NN(C)C(=S)c1ccccc1)C(=S)c1ccccc1 [STA4783] (first compound 0.4 µM, partner dose 0.006 µM) | 263% | 338% | 505% | 85% | 138% | 69% |
| Cn1cnc2c(F)c(Nc3ccc(Br)cc3Cl)c(C(=O)NOCCO)cc21 [selumetinib] + COc1ccc(COc2ccc(Cc3cnc(N)nc3N)cc2OC)cc1 [GW2580] (first compound 0.015 µM, partner dose 1 µM) | 119% | 55.9% | 85.9% | 81.9% | 104% | 41.4% |
| C[C@]1(O)C[C@@H](c2nc(-c3ccc4ccc(-c5ccccc5)nc4c3)c3c(N)nccn32)C1 + O=C(Nc1ccccc1)c1cc([N+](=O)[O-])ccc1Cl [GW9662] (first compound 0.4 µM, partner dose 2 µM) | 175% | 179% | 121% | 79.7% | 107% | 55.8% |
| C[C@@H](N)c1ccc(C(=O)Nc2ccnc3[nH]ccc23)cc1 + CCCCCCCCc1ccc(CCC(N)(CO)CO)cc1 [fingolimod] (first compound 0.4 µM, partner dose 2 µM) | 96.4% | 96.5% | 129% | 52.6% | 91.7% | 44.1% |
| C[C@@H](N)c1ccc(C(=O)Nc2ccnc3[nH]ccc23)cc1 + CN(C)S(=O)(=O)c1ccc2c(c1)/C(=C/c1cc3c([nH]1)CCCC3)C(=O)N2 [SU6656] (first compound 0.4 µM, partner dose 0.4 µM) | 132% | 106% | 146% | 58% | 133% | 107% |
| CS(=O)(=O)c1ccc(C(=O)Nc2ccc(Cl)c(-c3ccccn3)c2)c(Cl)c1 [vismodegib] + CCCS(=O)(=O)Nc1ccc(F)c(C(=O)c2c[nH]c3ncc(Cl)cc23)c1F [PLX4720] (first compound 1 µM, partner dose 0.08 µM) | 141% | 111% | 97.4% | 100% | 91% | 80.4% |
| Cn1sc(=O)n(Cc2ccccc2)c1=O + O=c1cc(-c2cccc3c2Sc2ccccc2S3)oc(N2CCOCC2)c1 [KU55933] (first compound 0.4 µM, partner dose 1 µM) | 77.2% | 104% | 98.6% | 40.8% | 78.9% | 95.8% |
| CC1(C)CCC(c2ccc(Cl)cc2)=C(CN2CCN(c3ccc(C(=O)NS(=O)(=O)c4ccc(N[C@H](CCN5CCOCC5)CSc5ccccc5)c(S(=O)(=O)C(F)(F)F)c4)cc3)CC2)C1 + CN(C)S(=O)(=O)c1ccc2c(c1)/C(=C/c1cc3c([nH]1)CCCC3)C(=O)N2 [SU6656] (first compound 0.4 µM, partner dose 0.4 µM) | 524% | 133% | 1110% | 55.4% | 99.2% | 36.7% |
| COc1ccc(C2=N[C@@H](c3ccc(Cl)cc3)[C@@H](c3ccc(Cl)cc3)N2C(=O)N2CCNC(=O)C2)c(OC(C)C)c1 [Nutlin-3] + O=C(O)C(=O)Nc1sc2c(c1C(=O)O)CCNC2 [TCS401] (first compound 0.1 µM, partner dose 1.66667 µM) | 91% | 53.1% | 98% | 80.4% | 109% | 358% |

Whole records, quoted from the list.
CC1(C)CCC(c2ccc(Cl)cc2)=C(CN2CCN(c3ccc(C(=O)NS(=O)(=O)c4ccc(N[C@H](CCN5CCOCC5)CSc5ccccc5)c(S(=O)(=O)C(F)(F)F)c4)cc3)CC2)C1 + CN(C)S(=O)(=O)c1ccc2c(c1)/C(=C/c1cc3c([nH]1)CCCC3)C(=O)N2 [SU6656] (first compound 0.4 µM, partner dose 0.4 µM) as listed: cleaved PARP positive nuclei fraction (WM115): 524%; cleaved PARP positive nuclei fraction (WM1716): 133%; cleaved PARP positive nuclei fraction (WM1745): 1110%; cleaved PARP positive nuclei fraction (WM3526): 55.4%; cleaved PARP positive nuclei fraction (WM3619): 99.2%; cleaved PARP positive nuclei fraction (WM451Lu): 36.7%
CC1(C)CCC(c2ccc(Cl)cc2)=C(CN2CCN(c3ccc(C(=O)NS(=O)(=O)c4ccc(N[C@H](CCN5CCOCC5)CSc5ccccc5)c(S(=O)(=O)C(F)(F)F)c4)cc3)CC2)C1 + Cn1sc(=O)n(Cc2ccccc2)c1=O [TDZD-8] (first compound 0.4 µM, partner dose 0.4 µM) as listed: cleaved PARP positive nuclei fraction (WM115): 441%; cleaved PARP positive nuclei fraction (WM1716): 98.6%; cleaved PARP positive nuclei fraction (WM1745): 692%; cleaved PARP positive nuclei fraction (WM3526): 190%; cleaved PARP positive nuclei fraction (WM3619): 92.8%; cleaved PARP positive nuclei fraction (WM451Lu): 53.1%
